According to publication PMC10542755:
Results are given in words; binding and its absence hold for the method and conditions named. In cells and extracts the contact can be indirect. Binding can be weak; no strength is given. Where a sequence is shown, tags or fusion partners need not be part of it.

Target: T1, MYC-NDP52 (full length) (human) (UniProt Q13137)
T1 sequence: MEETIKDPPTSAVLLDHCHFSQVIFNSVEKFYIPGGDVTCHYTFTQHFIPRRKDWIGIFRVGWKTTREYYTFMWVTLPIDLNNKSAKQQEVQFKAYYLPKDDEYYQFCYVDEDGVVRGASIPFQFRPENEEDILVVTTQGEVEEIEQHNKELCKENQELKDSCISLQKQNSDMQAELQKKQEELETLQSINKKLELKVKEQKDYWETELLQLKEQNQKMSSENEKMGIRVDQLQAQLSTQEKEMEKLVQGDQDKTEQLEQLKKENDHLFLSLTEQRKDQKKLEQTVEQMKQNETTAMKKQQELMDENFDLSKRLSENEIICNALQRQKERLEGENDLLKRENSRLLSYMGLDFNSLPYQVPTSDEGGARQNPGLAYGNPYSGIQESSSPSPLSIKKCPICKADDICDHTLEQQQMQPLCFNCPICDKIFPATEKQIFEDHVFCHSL
Experiment: co-IP; HEK293FT cells co-transfected with MYC-NDP52 or MYC-tagged domain-deleted mutants and CTRL (pcDNA3.1) or FLAG-BEX2; precipitated with MYC antibody

binding: binds
Substance: FLAG-BEX2 (human)
